This note sets out measurements from article PMC6907089.

Holding throughout (test): proximity labelling; BioID: MAC-tagged STING bait in stable inducible Flp-In T-REx HEK293 cells, 1 ug/ml tetracycline and 50 uM biotin for 24 h, steady state; biotinylated proteins affinity-purified and analysed by quantitative mass spectrometry; high-confidence interactors by SAINT and CRAPome; prey abundance normalised to the bait
One test deals with STING R232 (human).
Test [1] addresses STING G207E with R232 (R+207E) (human).
For test [2], the target named is STING G207E with H232 (H+207E) (human).

These are yes or no findings as the source states them, for the method shown. In cells and extracts the contact can be indirect. These calls come from enrichment with a bait or labelling near it, and not all partners need be listed. For some assays here: No binding means not detected with the bait.

B1: syntaxin 5 (STX5) (protein, UniProt Q13190 1-355)
chain: MIPRKRYGSKNTDQGVYLGLSKTQVLSPATAGSSSSDIAPLPPPVTLVPPPPDTMSCRDRTQEFLSACKSLQTRQNGIQTNKPALRAVRQRSEFTLMAKRIGKDLSNTFAKLEKLTILAKRKSLFDDKAVEIEELTYIIKQDINSLNKQIAQLQDFVRAKGSQSGRHLQTHSNTIVVSLQSKLASMSNDFKSVLEVRTENLKQQRSRREQFSRAPVSALPLAPNHLGGGAVVLGAESHASKDVAIDMMDSRTSQQLQLIDEQDSYIQSRADTMQNIESTIVELGSIFQQLAHMVKEQEETIQRIDENVLGAQLDVEAAHSEILKYFQSVTSNRWLMVKIFLILIVFFIIFVVFLA
Turning to B1, the binding result with STING R232 (human) is listed as “binds”.

B2: PDXD1 (pyridoxal-dependent decarboxylase domain-containing protein 1) (protein, UniProt Q6P996 1-788)
chain: MDASLEKIADPTLAEMGKNLKEAVKMLEDSQRRTEEENGKKLISGDIPGPLQGSGQDMVSILQLVQNLMHGDEDEEPQSPRIQNIGEQGHMALLGHSLGAYISTLDKEKLRKLTTRILSDTTLWLCRIFRYENGCAYFHEEEREGLAKICRLAIHSRYEDFVVDGFNVLYNKKPVIYLSAAARPGLGQYLCNQLGLPFPCLCRVPCNTVFGSQHQMDVAFLEKLIKDDIERGRLPLLLVANAGTAAVGHTDKIGRLKELCEQYGIWLHVEGVNLATLALGYVSSSVLAAAKCDSMTMTPGPWLGLPAVPAVTLYKHDDPALTLVAGLTSNKPTDKLRALPLWLSLQYLGLDGFVERIKHACQLSQRLQESLKKVNYIKILVEDELSSPVVVFRFFQELPGSDPVFKAVPVPNMTPSGVGRERHSCDALNRWLGEQLKQLVPASGLTVMDLEAEGTCLRFSPLMTAAVLGTRGEDVDQLVACIESKLPVLCCTLQLREEFKQEVEATAGLLYVDDPNWSGIGVVRYEHANDDKSSLKSDPEGENIHAGLLKKLNELESDLTFKIGPEYKSMKSCLYVGMASDNVDAAELVETIAATAREIEENSRLLENMTEVVRKGIQEAQVELQKASEERLLEEGVLRQIPVVGSVLNWFSPVQALQKGRTFNLTAGSLESTEPIYVYKAQGAGVTLPPTPSGSRTKQRLPGQKPFKRSLRGSDALSETSSVSHIEDLEKVERLSSGPEQITLEASSTEGHPGAPSPQHTDQTEAFQKGVPHPEDDHSQVEGPESLR
Take B2: the binding result in test [1] is on record as “binds”.

B3: UBIA1 (protein, UniProt Q9Y5Z9 1-338)
chain: MAASQVLGEKINILSGETVKAGDRDPLGNDCPEQDRLPQRSWRQKCASYVLALRPWSFSASLTPVALGSALAYRSHGVLDPRLLVGCAVAVLAVHGAGNLVNTYYDFSKGIDHKKSDDRTLVDRILEPQDVVRFGVFLYTLGCVCAACLYYLSPLKLEHLALIYFGGLSGSFLYTGGIGFKYVALGDLIILITFGPLAVMFAYAIQVGSLAIFPLVYAIPLALSTEAILHSNNTRDMESDREAGIVTLAILIGPTFSYILYNTLLFLPYLVFSILATHCTISLALPLLTIPMAFSLERQFRSQAFNKLPQRTAKLNLLLGLFYVFGIILAPAGSLPKI
For the molecule B3, in test [2], the binding result was “binds”.

B4: APMAP (adipocyte plasma membrane-associated protein) (protein, UniProt Q9HDC9 1-416)
chain: MSEADGLRQRRPLRPQVVTDDDGQAPEAKDGSSFSGRVFRVTFLMLAVSLTVPLLGAMMLLESPIDPQPLSFKEPPLLLGVLHPNTKLRQAERLFENQLVGPESIAHIGDVMFTGTADGRVVKLENGEIETIARFGSGPCKTRDDEPVCGRPLGIRAGPNGTLFVADAYKGLFEVNPWKREVKLLLSSETPIEGKNMSFVNDLTVTQDGRKIYFTDSSSKWQRRDYLLLVMEGTDDGRLLEYDTVTREVKVLLDQLRFPNGVQLSPAEDFVLVAETTMARIRRVYVSGLMKGGADLFVENMPGFPDNIRPSSSGGYWVGMSTIRPNPGFSMLDFLSERPWIKRMIFKLFSQETVMKFVPRYSLVLELSDSGAFRRSLHDPDGLVATYISEVHEHDGHLYLGSFRSPFLCRLSLQAV
As to B4, the binding result in test [2] is “binds”; in test [1] it was “no binding”.
